The other results are listed elsewhere or left out.
Assays:
Test in all cases: log2 fold change, soluble protein after heating vs DMSO (PISA); higher = thermal stabilisation; K562 lysate, 10 uM; active = over 0.2 and 3.5 SD of the protein, either way, in both replicates (recomputed)
vemurafenib = compound: CCCS(=O)(=O)Nc1ccc(F)c(C(=O)c2c[nH]c3ncc(-c4ccc(Cl)cc4)cc23)c1F [vemurafenib]
Summary of the method: (§1)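 Pellets of K562 cells were dounce-homogenised in PBS pH 7.4 with 1 mM MgCl2, and the crude extract was held at 1 mg/mL protein for a 30 min treatment with 10 μM compound. Aliquots were heated for 3 min over 48°C-58°C and pooled before NP-40 was added to 0.5% at 4°C. The supernatant from 21,000xg for 90 min was quantified by TMTpro 16plex LC-MS/MS with channel sums equalised. Values are reported from duplicates as log-two fold change in thermal stability relative to solvent controls.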

Amino acid sequences for entries named in this document (tags omitted). A change or cut given only in a name is not applied to a line headed by its entry.
UniProt P49916: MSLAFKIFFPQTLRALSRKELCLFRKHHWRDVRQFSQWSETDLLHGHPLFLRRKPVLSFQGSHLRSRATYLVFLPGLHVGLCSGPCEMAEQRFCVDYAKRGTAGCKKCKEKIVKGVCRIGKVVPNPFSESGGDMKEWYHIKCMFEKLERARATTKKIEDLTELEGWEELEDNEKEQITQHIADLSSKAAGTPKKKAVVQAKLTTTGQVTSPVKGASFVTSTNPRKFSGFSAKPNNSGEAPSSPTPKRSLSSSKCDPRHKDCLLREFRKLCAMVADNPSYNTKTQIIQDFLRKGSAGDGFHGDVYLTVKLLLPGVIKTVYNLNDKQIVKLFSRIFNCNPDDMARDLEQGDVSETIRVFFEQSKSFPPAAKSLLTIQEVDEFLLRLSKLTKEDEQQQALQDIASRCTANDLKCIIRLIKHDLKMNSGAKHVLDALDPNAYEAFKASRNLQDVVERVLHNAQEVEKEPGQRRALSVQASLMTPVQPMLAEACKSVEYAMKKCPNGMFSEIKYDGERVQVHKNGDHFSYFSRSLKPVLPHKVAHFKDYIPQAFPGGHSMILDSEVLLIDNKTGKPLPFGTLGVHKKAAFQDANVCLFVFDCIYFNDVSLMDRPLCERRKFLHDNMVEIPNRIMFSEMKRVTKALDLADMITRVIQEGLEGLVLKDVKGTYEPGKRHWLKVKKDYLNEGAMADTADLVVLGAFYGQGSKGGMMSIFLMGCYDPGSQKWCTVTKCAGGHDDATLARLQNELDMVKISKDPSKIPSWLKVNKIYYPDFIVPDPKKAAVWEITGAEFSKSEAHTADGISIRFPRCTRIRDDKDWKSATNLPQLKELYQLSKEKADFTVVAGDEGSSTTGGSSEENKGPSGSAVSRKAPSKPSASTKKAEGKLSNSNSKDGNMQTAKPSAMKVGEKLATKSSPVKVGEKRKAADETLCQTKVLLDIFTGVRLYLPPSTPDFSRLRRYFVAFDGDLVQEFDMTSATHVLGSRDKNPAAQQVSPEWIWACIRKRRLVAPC
UniProt O95777: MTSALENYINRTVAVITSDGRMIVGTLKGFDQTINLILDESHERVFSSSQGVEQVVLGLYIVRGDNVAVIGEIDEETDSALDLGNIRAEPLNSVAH
UniProt Q5TKA1: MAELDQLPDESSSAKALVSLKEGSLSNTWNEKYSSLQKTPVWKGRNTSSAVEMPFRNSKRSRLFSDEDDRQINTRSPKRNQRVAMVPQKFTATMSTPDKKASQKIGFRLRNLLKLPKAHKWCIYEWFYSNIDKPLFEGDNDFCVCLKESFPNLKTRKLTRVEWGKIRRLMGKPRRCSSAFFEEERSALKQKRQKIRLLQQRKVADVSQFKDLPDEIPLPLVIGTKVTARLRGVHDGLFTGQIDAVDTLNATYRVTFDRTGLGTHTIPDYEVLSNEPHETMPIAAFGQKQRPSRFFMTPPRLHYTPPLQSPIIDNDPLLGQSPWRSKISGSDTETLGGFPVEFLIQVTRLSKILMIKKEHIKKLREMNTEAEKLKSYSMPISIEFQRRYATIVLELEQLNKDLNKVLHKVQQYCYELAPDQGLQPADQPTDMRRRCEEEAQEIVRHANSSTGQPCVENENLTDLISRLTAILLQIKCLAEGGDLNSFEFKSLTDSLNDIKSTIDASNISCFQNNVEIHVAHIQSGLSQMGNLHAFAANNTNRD
UniProt Q6UWE0: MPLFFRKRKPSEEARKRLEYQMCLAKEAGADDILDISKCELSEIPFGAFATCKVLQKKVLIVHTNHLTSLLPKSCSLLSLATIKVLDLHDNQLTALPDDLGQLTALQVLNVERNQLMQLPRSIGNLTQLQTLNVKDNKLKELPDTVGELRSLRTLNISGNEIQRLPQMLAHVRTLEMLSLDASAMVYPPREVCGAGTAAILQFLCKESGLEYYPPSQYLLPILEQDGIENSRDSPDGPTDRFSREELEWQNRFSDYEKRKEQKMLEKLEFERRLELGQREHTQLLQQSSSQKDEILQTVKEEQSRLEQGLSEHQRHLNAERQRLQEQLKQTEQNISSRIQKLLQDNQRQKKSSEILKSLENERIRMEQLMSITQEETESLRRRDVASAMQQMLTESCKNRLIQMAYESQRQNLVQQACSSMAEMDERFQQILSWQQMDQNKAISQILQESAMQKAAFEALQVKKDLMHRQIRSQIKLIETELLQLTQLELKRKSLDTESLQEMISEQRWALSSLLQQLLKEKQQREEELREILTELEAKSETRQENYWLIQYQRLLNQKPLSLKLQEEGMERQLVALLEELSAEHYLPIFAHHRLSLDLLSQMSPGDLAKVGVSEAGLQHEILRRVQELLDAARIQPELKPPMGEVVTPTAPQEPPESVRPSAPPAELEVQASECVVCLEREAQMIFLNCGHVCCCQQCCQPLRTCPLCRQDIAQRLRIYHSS
UniProt P53667: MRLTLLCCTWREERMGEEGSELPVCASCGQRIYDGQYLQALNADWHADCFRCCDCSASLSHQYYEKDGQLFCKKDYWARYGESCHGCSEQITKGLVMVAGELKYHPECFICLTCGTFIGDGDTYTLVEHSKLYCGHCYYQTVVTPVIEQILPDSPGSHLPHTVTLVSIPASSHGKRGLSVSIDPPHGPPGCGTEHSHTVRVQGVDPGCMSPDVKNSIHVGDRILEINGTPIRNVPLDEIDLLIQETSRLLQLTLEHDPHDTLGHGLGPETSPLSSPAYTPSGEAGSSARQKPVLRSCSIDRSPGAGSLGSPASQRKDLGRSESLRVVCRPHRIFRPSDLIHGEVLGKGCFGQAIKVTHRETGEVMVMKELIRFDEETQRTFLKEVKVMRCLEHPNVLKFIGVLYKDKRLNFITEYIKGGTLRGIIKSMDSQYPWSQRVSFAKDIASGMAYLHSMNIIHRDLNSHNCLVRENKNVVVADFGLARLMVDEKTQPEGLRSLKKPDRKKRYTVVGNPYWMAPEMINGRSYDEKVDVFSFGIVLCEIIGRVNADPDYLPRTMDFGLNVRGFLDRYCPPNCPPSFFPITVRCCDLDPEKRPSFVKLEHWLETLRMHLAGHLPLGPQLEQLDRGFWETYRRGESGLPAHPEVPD
UniProt Q8TCA0: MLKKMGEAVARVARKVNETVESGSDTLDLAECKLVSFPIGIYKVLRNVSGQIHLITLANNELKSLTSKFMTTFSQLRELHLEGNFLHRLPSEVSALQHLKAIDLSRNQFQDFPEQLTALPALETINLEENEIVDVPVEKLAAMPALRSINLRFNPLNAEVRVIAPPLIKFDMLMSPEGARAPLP
UniProt P36776: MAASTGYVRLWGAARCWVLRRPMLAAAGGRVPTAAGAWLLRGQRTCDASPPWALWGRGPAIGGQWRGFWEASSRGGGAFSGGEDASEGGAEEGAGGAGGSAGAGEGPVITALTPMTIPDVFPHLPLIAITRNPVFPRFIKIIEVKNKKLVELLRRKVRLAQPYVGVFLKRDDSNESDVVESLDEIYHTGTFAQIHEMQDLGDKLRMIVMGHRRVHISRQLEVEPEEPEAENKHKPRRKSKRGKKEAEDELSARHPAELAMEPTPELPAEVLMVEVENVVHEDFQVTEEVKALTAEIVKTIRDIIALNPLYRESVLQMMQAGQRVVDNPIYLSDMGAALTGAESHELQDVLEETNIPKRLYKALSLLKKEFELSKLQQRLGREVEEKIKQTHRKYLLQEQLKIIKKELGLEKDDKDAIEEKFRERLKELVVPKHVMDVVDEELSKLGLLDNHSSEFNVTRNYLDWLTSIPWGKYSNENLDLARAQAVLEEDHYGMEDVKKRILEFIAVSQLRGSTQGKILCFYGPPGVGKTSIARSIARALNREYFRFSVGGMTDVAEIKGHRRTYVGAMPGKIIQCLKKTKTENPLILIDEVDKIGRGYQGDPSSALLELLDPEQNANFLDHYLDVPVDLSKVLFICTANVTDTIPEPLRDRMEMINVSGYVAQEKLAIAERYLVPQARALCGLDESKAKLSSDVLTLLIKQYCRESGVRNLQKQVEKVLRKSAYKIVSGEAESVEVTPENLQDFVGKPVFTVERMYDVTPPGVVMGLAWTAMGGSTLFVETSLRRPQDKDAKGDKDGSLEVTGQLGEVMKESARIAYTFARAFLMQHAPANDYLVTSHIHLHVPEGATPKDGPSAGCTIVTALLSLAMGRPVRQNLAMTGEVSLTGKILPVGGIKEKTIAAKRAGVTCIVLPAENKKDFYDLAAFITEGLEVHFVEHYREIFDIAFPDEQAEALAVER
UniProt Q96AG4: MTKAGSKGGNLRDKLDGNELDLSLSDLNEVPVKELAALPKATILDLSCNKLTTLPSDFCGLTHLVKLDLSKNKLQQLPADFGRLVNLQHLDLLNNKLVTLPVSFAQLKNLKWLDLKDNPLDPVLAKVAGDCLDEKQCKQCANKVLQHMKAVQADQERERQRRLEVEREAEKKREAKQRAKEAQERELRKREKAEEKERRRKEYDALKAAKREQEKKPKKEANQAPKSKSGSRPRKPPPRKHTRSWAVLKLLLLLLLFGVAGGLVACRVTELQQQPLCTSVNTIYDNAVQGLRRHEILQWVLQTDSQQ
UniProt Q9H9A6: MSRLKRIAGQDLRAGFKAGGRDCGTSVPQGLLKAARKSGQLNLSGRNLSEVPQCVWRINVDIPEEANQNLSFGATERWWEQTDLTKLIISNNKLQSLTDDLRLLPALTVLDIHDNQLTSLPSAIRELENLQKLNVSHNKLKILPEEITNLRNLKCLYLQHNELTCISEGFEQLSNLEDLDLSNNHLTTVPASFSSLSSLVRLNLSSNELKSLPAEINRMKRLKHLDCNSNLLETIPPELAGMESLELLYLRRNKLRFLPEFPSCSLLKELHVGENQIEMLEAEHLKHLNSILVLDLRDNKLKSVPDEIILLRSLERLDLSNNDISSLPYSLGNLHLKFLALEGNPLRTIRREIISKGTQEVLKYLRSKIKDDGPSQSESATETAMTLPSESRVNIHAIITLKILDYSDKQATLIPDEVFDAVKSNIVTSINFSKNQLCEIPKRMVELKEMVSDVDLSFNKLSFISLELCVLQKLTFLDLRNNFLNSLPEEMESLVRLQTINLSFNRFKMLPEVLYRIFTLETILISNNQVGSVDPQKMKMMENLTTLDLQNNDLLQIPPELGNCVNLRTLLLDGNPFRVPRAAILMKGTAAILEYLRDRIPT
UniProt O95214: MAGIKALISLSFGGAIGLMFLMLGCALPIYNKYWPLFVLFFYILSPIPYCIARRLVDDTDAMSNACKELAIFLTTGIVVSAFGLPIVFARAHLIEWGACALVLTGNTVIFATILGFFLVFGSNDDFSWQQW
UniProt Q6UWP7: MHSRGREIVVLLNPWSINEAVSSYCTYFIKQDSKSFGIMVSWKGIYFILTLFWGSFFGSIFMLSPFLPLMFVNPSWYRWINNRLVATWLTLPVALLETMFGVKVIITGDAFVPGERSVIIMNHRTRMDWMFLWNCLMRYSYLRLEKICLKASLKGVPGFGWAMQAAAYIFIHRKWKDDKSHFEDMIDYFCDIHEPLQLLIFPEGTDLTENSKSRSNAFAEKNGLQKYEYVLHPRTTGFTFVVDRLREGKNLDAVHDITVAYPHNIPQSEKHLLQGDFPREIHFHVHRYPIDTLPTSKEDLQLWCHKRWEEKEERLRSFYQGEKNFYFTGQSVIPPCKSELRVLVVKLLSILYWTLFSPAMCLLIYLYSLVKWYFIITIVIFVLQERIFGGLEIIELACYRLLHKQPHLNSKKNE
UniProt Q5T3J3: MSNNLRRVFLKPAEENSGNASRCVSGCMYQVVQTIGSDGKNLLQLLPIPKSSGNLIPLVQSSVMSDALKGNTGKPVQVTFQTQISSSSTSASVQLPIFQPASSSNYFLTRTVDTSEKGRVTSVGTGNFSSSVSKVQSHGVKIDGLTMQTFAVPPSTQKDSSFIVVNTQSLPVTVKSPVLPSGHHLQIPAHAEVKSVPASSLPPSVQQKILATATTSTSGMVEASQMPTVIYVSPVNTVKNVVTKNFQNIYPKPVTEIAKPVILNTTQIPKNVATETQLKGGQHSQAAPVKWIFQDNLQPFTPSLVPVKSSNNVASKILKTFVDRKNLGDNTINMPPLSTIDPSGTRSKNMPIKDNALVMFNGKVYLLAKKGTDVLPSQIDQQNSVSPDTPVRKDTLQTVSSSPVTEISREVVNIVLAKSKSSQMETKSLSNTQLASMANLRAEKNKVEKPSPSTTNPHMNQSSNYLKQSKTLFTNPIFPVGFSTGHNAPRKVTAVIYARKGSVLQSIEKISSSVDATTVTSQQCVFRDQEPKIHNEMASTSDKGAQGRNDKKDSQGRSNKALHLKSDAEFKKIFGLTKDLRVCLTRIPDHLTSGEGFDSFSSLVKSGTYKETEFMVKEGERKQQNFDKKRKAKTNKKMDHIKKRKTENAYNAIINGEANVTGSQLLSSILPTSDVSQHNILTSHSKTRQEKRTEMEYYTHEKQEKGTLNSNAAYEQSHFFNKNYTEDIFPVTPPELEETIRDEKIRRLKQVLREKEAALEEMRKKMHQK
UniProt P61968: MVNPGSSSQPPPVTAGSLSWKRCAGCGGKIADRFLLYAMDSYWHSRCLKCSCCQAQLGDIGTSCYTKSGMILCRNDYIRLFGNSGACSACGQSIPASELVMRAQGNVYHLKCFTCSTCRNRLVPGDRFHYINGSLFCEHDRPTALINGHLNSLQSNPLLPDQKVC

[1] = compound: CCCS(=O)(=O)Nc1ccc(F)c(C(=O)c2c[nH]c3ncc(Cl)cc23)c1F
Summary of the method: as §1

barasertib = compound: CCN(CCCOc1ccc2c(Nc3cc(CC(=O)Nc4cccc(F)c4)[nH]n3)ncnc2c1)CCOP(=O)(O)O [barasertib]
Summary of the method: as §1

[2] = compound: CC[C@@H]1C(=O)N(C)c2cnc(Nc3ccc(C(=O)NC4CCN(C)CC4)cc3OC)nc2N1C1CCCC1
Summary of the method: as §1

volasertib = compound: CC[C@@H]1C(=O)N(C)c2cnc(Nc3ccc(C(=O)N[C@H]4CC[C@H](N5CCN(CC6CC6)CC5)CC4)cc3OC)nc2N1C(C)C [volasertib]
Summary of the method: as §1

[3] = compound: CCn1c(C(=O)N(C2CC2)C2CC2)cc2c3c(ncn3C)c(Nc3cc(C)n(C)n3)nc21
Summary of the method: as §1

[4] = compound: CCn1cc(-c2ccnc3[nH]c(-c4cccc(CN(C)C)c4)cc23)c(-c2ccc(NC(=O)N(C)C)cc2)n1
Summary of the method: as §1

[5] = compound: CN1CCC(CNc2ccc3ncc(-c4cccc(OC(F)(F)F)c4)n3n2)CC1
Summary of the method: as §1

saracatinib = compound: CN1CCN(CCOc2cc(OC3CCOCC3)c3c(Nc4c(Cl)ccc5c4OCO5)ncnc3c2)CC1 [saracatinib]
Summary of the method: as §1

sotrastaurin = compound: CN1CCN(c2nc(C3=C(c4c[nH]c5ccccc45)C(=O)NC3=O)c3ccccc3n2)CC1 [sotrastaurin]
Summary of the method: as §1

Target	log2 fold change (vemurafenib)	log2 fold change [1]	log2 fold change (barasertib)	log2 fold change [2]	log2 fold change (volasertib)	log2 fold change [3]	log2 fold change [4]	log2 fold change [5]	log2 fold change (saracatinib)	log2 fold change (sotrastaurin)
LPIN3 isoform 2 (UniProt Q9BQK8)	inactive: 0.006	inactive: 0.006	inactive: -0.05	inactive: -0.036	inactive: 0.027	inactive: -0.079	inactive: -0.036	inactive: 0.017	inactive: -0.092	inactive: 0.013
LIG3 (UniProt P49916)	inactive: -0.029	inactive: -0.003	inactive: 0.019	inactive: -0.127	inactive: -0.028	inactive: 0.031	inactive: -0.033	inactive: -0.011	inactive: 0.018	inactive: 0.009
LRPAP1 (UniProt P30533)	inactive: 0.053	inactive: -0.005	inactive: -0.051	inactive: -0.038	inactive: -0.006	inactive: -0.011	inactive: 0.058	inactive: -0.022	inactive: 0.026	inactive: 0.031
LSM8 (UniProt O95777)	inactive: -0.054	inactive: 0.018	inactive: 0.355	inactive: -0.019	inactive: 0.027	inactive: 0	inactive: -0.058	inactive: 0.052	inactive: -0.005	inactive: -0.017
LIN9 isoform 2 (UniProt Q5TKA1)	inactive: -0.001	inactive: 0.064	inactive: 0.001	inactive: 0.131	inactive: -0.002	inactive: 0	inactive: -0.04	inactive: -0.057	inactive: 0.044	inactive: 0.002
LCMT2 (UniProt O60294)	inactive: 0.173	inactive: 0.133	inactive: 0.085	inactive: -0.037	inactive: -0.074	inactive: 0.011	inactive: -0.046	inactive: -0.057	inactive: 0.073	inactive: -0.058
LRSAM1 (UniProt Q6UWE0)	inactive: -0.005	inactive: -0.003	inactive: 0.04	inactive: 0.04	inactive: -0.006	inactive: 0.002	inactive: -0.046	inactive: 0.016	inactive: -0.047	inactive: 0.005
LIMK1 (UniProt P53667)	inactive: 0.234	inactive: 0.179	inactive: 0.007	inactive: -0.195	inactive: -0.215	inactive: 0.108	inactive: -0.104	inactive: -0.028	inactive: -0.022	inactive: -0.15
LMBRD1 (UniProt Q9NUN5)	inactive: 0.066	inactive: -0.022	inactive: -0.035	inactive: 0.072	inactive: 0.07	inactive: -0.019	inactive: 0.091	inactive: 0.085	inactive: 0.039	inactive: 0.094
LSR (UniProt Q86X29)	inactive: -0.026	inactive: 0.003	inactive: -0.022	inactive: -0.038	inactive: -0.043	inactive: 0.091	inactive: -0.027	inactive: 0.037	inactive: 0.033	inactive: 0.04
LRRC20 (UniProt Q8TCA0)	inactive: -0.029	inactive: 0.019	inactive: 0.084	inactive: 0.051	inactive: -0.018	inactive: 0.005	inactive: -0.015	inactive: -0.03	inactive: -0.033	inactive: -0.017
LONP1 (UniProt P36776)	inactive: -0.015	inactive: -0.009	inactive: -0.015	inactive: 0.016	inactive: -0.037	inactive: -0.007	inactive: -0.02	inactive: 0.03	inactive: -0.027	inactive: -0.016
LIMK2 isoform 3 (UniProt P53671)	inactive: 0.031	inactive: 0.046	inactive: -0.062	inactive: -0.173	inactive: -0.002	inactive: -0.046	active: 0.963	inactive: 0.023	inactive: -0.017	inactive: -0.05
LEO1 (UniProt Q8WVC0)	inactive: 0.009	inactive: 0.015	inactive: 0.002	inactive: 0.069	inactive: -0.017	inactive: 0.001	inactive: 0.007	inactive: -0.006	inactive: 0.019	inactive: -0.058
LHPP (UniProt Q9H008)	inactive: 0.07	inactive: -0.008	inactive: -0.1	inactive: 0.026	inactive: 0.015	inactive: -0.046	inactive: -0.239	inactive: 0.119	inactive: 0.042	inactive: -0.011
LPCAT1 (UniProt Q8NF37)	inactive: -0.009	inactive: 0.07	inactive: 0.012	inactive: 0.037	inactive: 0.097	inactive: -0.072	active: -0.39	inactive: 0.099	inactive: 0.079	inactive: 0.032
LLGL1 (UniProt Q15334)	inactive: 0.06	inactive: -0.052	inactive: -0.014	inactive: -0.057	inactive: 0.02	inactive: -0.038	inactive: 0.033	inactive: -0.008	inactive: -0.097	inactive: 0.168
LRRC59 (UniProt Q96AG4)	inactive: 0.016	inactive: 0.003	inactive: -0.007	inactive: 0.008	inactive: -0.004	inactive: -0.013	inactive: 0.072	inactive: -0.011	inactive: -0.02	inactive: -0.057
LRRFIP1 (UniProt Q32MZ4)	inactive: 0.027	inactive: 0.006	inactive: -0.017	inactive: 0.055	inactive: 0.022	inactive: -0.023	inactive: -0.006	inactive: 0.045	inactive: 0.018	inactive: -0.001
LDLRAP1 (UniProt Q5SW96)	inactive: 0.04	–	inactive: 0.131	inactive: 0.083	–	inactive: -0.025	inactive: -0.069	inactive: -0.054	inactive: 0	inactive: 0.042
LRFN4 (UniProt Q6PJG9)	inactive: 0.054	inactive: 0.084	–	inactive: 0.004	inactive: 0.068	–	inactive: 0.155	inactive: 0.165	inactive: -0.065	inactive: -0.109
LRRC40 (UniProt Q9H9A6)	inactive: 0.004	inactive: 0.015	inactive: 0.034	inactive: -0.024	inactive: -0.011	inactive: 0.018	inactive: 0.052	inactive: -0.052	inactive: 0	inactive: 0.021
LEPROTL1 isoform 2 (UniProt O95214)	inactive: -0.052	inactive: -0.069	inactive: 0.073	–	inactive: 0.132	inactive: 0.17	–	–	inactive: 0.329	–
LCLAT1 (UniProt Q6UWP7)	inactive: -0.019	inactive: 0.017	inactive: 0.042	inactive: 0.035	inactive: -0.003	inactive: -0.041	inactive: -0.019	inactive: 0.043	inactive: 0.031	inactive: -0.01
LRRIQ1 (UniProt Q96JM4)	inactive: -0.023	inactive: 0.02	–	–	inactive: 0.015	inactive: -0.015	–	–	–	inactive: 0.027
LRIF1 (UniProt Q5T3J3)	inactive: 0.213	inactive: -0.005	–	inactive: -0.009	inactive: 0.042	inactive: 0.006	inactive: 0.105	inactive: 0.044	inactive: 0.046	inactive: 0.001
LMO4 (UniProt P61968)	inactive: 0.027	inactive: -0.04	–	–	inactive: -0.113	inactive: -0.139	–	–	inactive: 0.159	inactive: -0.156
LSM6 (UniProt P62312)	inactive: -0.036	inactive: -0.026	inactive: -0.016	inactive: 0.014	inactive: 0.043	inactive: -0.021	inactive: 0.017	inactive: 0.019	inactive: 0.023	inactive: -0.018

Rewritten bar-delimited: entries from further up.
Target | log2 fold change (vemurafenib) | log2 fold change [1] | log2 fold change (barasertib) | log2 fold change [2] | log2 fold change (volasertib) | log2 fold change [3] | log2 fold change [4] | log2 fold change [5] | log2 fold change (saracatinib) | log2 fold change (sotrastaurin)
LRPAP1 (UniProt P30533) | inactive: 0.053 | inactive: -0.005 | inactive: -0.051 | inactive: -0.038 | inactive: -0.006 | inactive: -0.011 | inactive: 0.058 | inactive: -0.022 | inactive: 0.026 | inactive: 0.031
LSM8 (UniProt O95777) | inactive: -0.054 | inactive: 0.018 | inactive: 0.355 | inactive: -0.019 | inactive: 0.027 | inactive: 0 | inactive: -0.058 | inactive: 0.052 | inactive: -0.005 | inactive: -0.017
